## Screening data, single-dose tests

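Whole-parasite assay of Trypanosoma brucei over 72 hours; the read-out is not stated. Tested at 30 µM. Direction is inferred from retests: higher values go with stronger inhibition. Values scatter widely below zero; nearly all retest evidence comes from the higher of the two concentrations used. Of about 64,000 compounds tested this way, about 940 (1.5%) reached 50% or more in at least one test.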

The filed quantity is “Percent Effect” (%).
The controls that fix the scale are not given in the record; negative values are as filed.
Compounds were drawn at random from those tested, without regard to their results.

O=C(O)C(F)(F)F.[H][C@@]12CCN(CC(C)C)C[C@@]1([H])[C@H](C(=O)N1CCCO1)CCO2 read -5.714%.
O=C1CCC2(CCCN(c3ncnc4[nH]cnc34)C2)CN1CCCO (centres unmarked) read 2.339%.
OCCn1cc(CN2CCN(CCOCC(F)(F)F)CC2)cn1 read -52.19%.
O=C(O)c1ccc(CCNC(=O)C2(O)Cc3ccccc3C2)cc1 read 3.379%.
O=C(O)c1c(Cl)ncn1-c1ccccc1 read -42.84%.
O=C(Nc1cccnc1)c1nn(C2CCS(=O)(=O)C2)c2c1CCCC2 (centres unmarked) read -42.09%.
O=C(CSC1CCc2ccccc2NC1=O)NCc1ccccc1 (centres unmarked) read 8.011%.
CC(C)NC(=O)Cn1cc(OCc2ccc(F)cc2)c(=O)cc1CO read -17.86%.
[H][C@@]12CCN(S(=O)(=O)C3CC3)C[C@@]1([H])O[C@H](c1ccnc(C)n1)C2 read -50.63%.
CC(C)N(C)S(=O)(=O)N(Cc1cccs1)CC1CCCO1 (centres unmarked) read -90.83%.
Cc1nc(NCCN2CCCC2=O)cc(C2CN(C(C)C)CCO2)n1 (centres unmarked) read -7.259%.
Cc1nc(CN2CCC3(CCCN(Cc4ccoc4)C3)C2=O)cs1.O=C(O)C(F)(F)F.O=C(O)C(F)(F)F (centres unmarked) read -13.31%.
CC(NC(=O)c1cccs1)C(=O)NCc1cccnc1N1CCCCC1 (centres unmarked) read 15.34%.
CC(NCc1cc2cc(F)ccc2o1)c1nnc2n1CCCC2 (centres unmarked) read 0.7474%.
COC1CCN(C(=O)CCc2c(C)nc3ccnn3c2C)CC1 read -12.94%.
Cc1nn(C)cc1CN1CCc2c(nc(-c3ccccn3)[nH]c2=O)C1 read 3.808%.
Cc1cccc(CC(=O)N2CCN(c3nccn3C)CC2)c1.Cl read 6.386%.
O=C(N[C@@H]1CCN(C(=O)c2ccc(F)cc2Cl)C[C@H]1O)c1ccccn1 read -20.24%.
[H][C@]12CC[C@]([H])(CN(C(=O)c3sccc3S(N)(=O)=O)C1)N(C)C2=O read -24.4%.
CC(CO)N1CCN(C(=O)OC(C)(C)C)CC1 (centres unmarked) read -4.648%.
N#Cc1cccc(S(=O)(=O)CCN2CCOC2=O)c1 read -25.87%.
CN(C)c1ncccc1CNCc1ccc(N2CCOCC2)cc1 read -59.19%.
Cc1ccc(-c2cc(C(=O)N3CCCC3c3cccnc3)[nH]n2)o1 (centres unmarked) read 0.563%.
[H][C@]12OCCN(C(=O)C3CCOCC3)[C@@]1([H])CC[C@@H]2OCc1ccncc1 read -5.858%.
Cc1ccc(S(=O)(=O)NC[C@H]2OC[C@@H](NCc3cccnc3)[C@@H]2O)cc1 read -11.07%.
CC(C)CC(NCc1cccs1)c1ccccn1 (centres unmarked) read -23.88%.
CCc1ccccc1OC1CN(C(=O)c2ccnc(OC)c2)C1 read -9.856%.
CCc1nsc(NC2CC(=O)N(C(C)(C)C)C2)n1 (centres unmarked) read -10.85%.
O=S(=O)(NCc1ccccc1)N1CCN(c2ncccn2)CC1 read -22.37%.
COCc1noc(CC2CN(c3ncnc4sc(C)c(C)c34)CCO2)n1 (centres unmarked) read 1.304%.
CC(C)c1noc(C[S+]([O-])CC(=O)Nc2cc(F)ccc2F)n1 (centres unmarked) read -33.07%.
[H][C@@]12CCN(c3ncccn3)C[C@]1(C(=O)NCc1cnc(C)cn1)CCO2 read -54.36%.
CN(C)C[C@@H]1CN(C(=O)CCC2CCCC2)C[C@@H]1CO read -5.717%.
CNC(=O)NC(=O)CSC(C)c1ccccc1F (centres unmarked) read -23.1%.
CCc1cc(C(=O)N2CCc3nc4c(C)csc4c(=O)n3CC2)on1 read 20.09%.
COc1cccc2c1OCCCN(Cc1ncccc1C(=O)O)C2 read -104.3%.
CNS(=O)(=O)c1cc(C(=O)NC2COc3ccccc32)cc(C)c1C (centres unmarked) read -7.362%.
CCc1nccn1C1CCCN(C(=O)c2cn3c(C)cccc3n2)C1 (centres unmarked) read 24.73%.
c1ccc(CN2CCC(Nc3ncnc4c3CCNCC4)C2)cc1 (centres unmarked) read -11.35%.
CCn1cc(-c2nn3c(C(F)(F)F)nnc3s2)cn1 read -8.434%.
Cc1cccc(N2CC3(CCN(S(=O)(=O)c4ccccc4)C3)CC2=O)c1 (centres unmarked) read 31.56%.
O=C(O)C(F)(F)F.[H][C@@]12CN(Cc3cnn(C)c3)C[C@]1([H])C(=O)N(c1cncnc1)C2 read 49.49%.
Cc1cc(N(C)Cc2ncc(-c3ccccc3C(=O)O)s2)ncn1 read -25.23%.
CCc1noc(-c2cccc(OCC(=O)NC(C)C)c2)n1 read 4.106%.
CCc1n[nH]c(=O)c(C(=O)N2CCSCC2)c1CC read 0.8126%.
O=C(O)[C@@H]1CN(C(=O)CCCc2ccc(F)cc2)C[C@H]1C1CC1 read -8.475%.
Cc1ncccc1Oc1ncnc(N2CCC3(CCCO3)CC2)c1C read -1.562%.
c1csc(-c2noc(CN3CCc4c(ncn4C4CC4)C3)n2)c1 read 29.83%.
O=C(N1CCCC1)N1CCC2(CC1)C(=O)N(CC1CC1)c1ccccc12 read -1.554%.
O=C(Nc1cc(Cl)ccc1Cl)NC1CCN(C2CCOC2)CC1 (centres unmarked) read -90.23%.
[H][C@@]12CCN(C(=O)C3CCOCC3)C[C@@]1([H])O[C@@H](c1nnc(C)[nH]1)C2 read -73.16%.
Cc1nc(C)n(CC2CCCN(c3ncnc4ccsc34)C2)n1 (centres unmarked) read -31.41%.

For reference, 3 entries once more:

- [H][C@@]12CCN(S(=O)(=O)C3CC3)C[C@@]1([H])O[C@H](c1ccnc(C)n1)C2 | -50.63%
- Cc1nn(C)cc1CN1CCc2c(nc(-c3ccccn3)[nH]c2=O)C1 | 3.808%
- O=C(O)[C@@H]1CN(C(=O)CCCc2ccc(F)cc2)C[C@H]1C1CC1 | -8.475%

Data taken from ChEMBL document CHEMBL3988442, “University of Dundee, Small-Polar-MMV Screening Library” (2021).